First the molecules themselves.
B1: il10ra_site1_sap_22_mot_HHH_b1_03460_000000139_0001_1_20_H_._HHH_b1_03209_af2_0001_0000300017_0000001_0_0001_af2pred_0001 (protein)
chain: SSSSSSDLERLLEAIRRLLELGDEELAELTLRFLKRLAEDLGDEEVEEEVKRLEEELESSSSSSS
B2: il10ra_site1_sap_15_mot_HHH_b2_04050_000000291_0001_1_20_H_._HHH_b2_00671_af2_0001_0000400020_0000001_0_0001_af2pred_0001 (protein)
chain: SSSSDEEEAAQEAFRLLREALHIDDEEEARKILEEALELAEEANNETLRWSIRRALEELESSSSS
B3: il10ra_site1_sap_14_mot_HHH_b1_00103_000000293_0001_1_15_H_._HHH_b2_03603_0001_0000200017_0000002_0_0001_af2pred_0001 (protein)
chain: SSSSSDQEYREEVEELLEEAEKISDPDRRSYVLIRAFALANRGNDPELRELVEKVAIELISSSSS
B4: il10ra_site1_sap_19_mot_8756ee2cf497b5429c717dfc0c0bcfd6_0001_000000186_0001_1_13_H_._HHH_b2_04852_0001_0000700039_0000001_0_0001 (protein)
chain: SSSSQEFYRLLERAIELASKLNDEETLKEIMELLREWFKKGDPRLEEQLKELLEELEERGSSSSS
B5: il10ra_site1_sap_17_mot_HHH_b2_03328_af2_000000127_0001_1_19_H_._HHH_b1_04993_0001_0000100008_0000001_0_0001 (protein)
chain: SSSSSIRERIIRLLYRALRLAAEGNPEEAERLIEEAHELAEELGDPELERYIRILLHFVRSSSSS
B6: il10ra_site1_sap_18_mot_HHH_b1_01874_000000035_0001_1_20_H_._HHH_b1_01794_af2_0001_0000100003_0000001_0_0001 (protein)
chain: SSSSSEENQEALRLSLEAFRLALRGNPEEAKEVLEEAAELAHRAGNERLLRQIENMLEALKSSSS
B7: il10ra_site1_normal_mot_HHH_b2_04057_000000065_0001_1_20_H_._HHH_b1_08686_0001_0000500032_0000002_0 (protein)
chain: SSSSSEEEVQELLREAEELNRRGDPDEAYKVIREVIELAAELNDPELQRLVLRLIREFLRLSSSS
B8: il10ra_site1_normal_mot_b26a303360aa2756ef5b79665ce52f45_0001_000000179_0001_1_11_H_._153aee36648f4e76fbed4769f1632b1b_0001_0001_0000400017_0000001_0 (protein)
chain: SKLEEVEELLEELAKRDVVAISLLHLLRADKRAGVPPEEILERLQEAARRANSPFARELLKLLEK
B9: il10ra_site1_sap_14_mot_HHH_b2_00943_af2_000000149_0001_1_17_H_._HHH_b2_04744_0001_0000100007_0000002_0_0001_af2pred_0001 (protein)
chain: SSSSTEEVRELFKLLRRVIELASEGDKEEFEELVEEAEELARELGNTTFEVILEFLKEQQSSSSS
B10: il10ra_site1_normal_mot_HHH_b1_05357_000000034_0001_23_39_H_._HHH_b1_03625_af2_0001_0000700020_0000001_0 (protein)
chain: SSSSSDEKEVTHILIQAYAAANHGNPEEAEELLKEAKEIAEEINNERLKLSIEKVEEILRSSSSS
B11: il10ra_site1_sap_18_mot_HHH_b2_04251_af2_000000037_0001_42_56_H_._HHH_b1_04956_0001_0000300035_0000001_0_0001_af2pred_0001 (protein)
chain: SSSSSSDAAREAIELIREALHIEDKEEAKELLEEAEELAQEANNPLALLQIRFALEQLSSSSSSS
B12: il10ra_site1_normal_mot_HHH_b2_03425_000000200_0001_22_39_H_._HHH_b1_07967_af2_0001_0000300014_0000002_0 (protein)
chain: SSSSNERERLYELLRRLIELSRHRDEEEFEKVYEEIQELVEELNNLLARFVLEIIERAFEGSSSS
B13: il10ra_site1_normal_mot_HHH_b2_02053_af2_000000006_0001_3_19_H_._HHH_b1_02595_0001_0000100002_0000001_1 (protein)
chain: SSSSTEADEEIYRLLRRVLELLARGNPEEAREVLEEAQELAEENNNRNLLFNIRHLKRDVNSSSS
B14: il10ra_site1_sap_20_mot_HHH_b1_07527_000000076_0001_1_15_H_._HHH_b1_08045_af2_0001_0000300025_0000001_0_0001_af2pred_0001 (protein)
chain: SSSSSEVREEVAKILAEAFVLAREGNPEEVEKVLEEAREVAEEHNDRQAERLVEFVEKILKSSSS
B15: il10ra_site1_normal_mot_HHH_b1_00999_000000080_0001_41_55_H_._ems_p1-15H-GBL-16H-GABBL-16H_0175_0001_0001_0002_af2_0001_0000200009_0000001_0 (protein)
chain: SSSSSDVSELAAEAVRFAFRNGDEEGLQEIWEIVKAWGNGEISREEASERLEEILEELRSSSSSS
B16: il10ra_site1_sap_15_mot_HHH_b2_07006_000000108_0001_1_19_H_._HHH_b1_01905_0001_0000100005_0000002_0_0001 (protein)
chain: SSSSDEWYERVKEILEEVVKLLRNGDPEEAEKLLEELEELVRENNDMATLATVEWLKELVRSSSS
B17: il10ra_site1_sap_13_mot_HHH_b1_02665_000000293_0001_1_18_H_._HHH_b1_06851_af2_0001_0000400020_0000001_0_0001 (protein)
chain: SSSSEEIYELVKRVIELAVEANDPEAARRAMELFIRYAQEGDPRYKEELEELLEELEEELRSSSS
B18: il10ra_site1_sap_23_mot_HHH_b1_02809_af2_000000277_0001_40_57_H_._HHH_b1_00736_af2_0001_0000600067_0000001_0_0001 (protein)
chain: SSSSSSDIEEIVEELLEEAEHVDEEERSKLLQEAVQFAIQGQDPELLRLVWRVVKELGKSSSSSS
B19: il10ra_site1_sap_16_mot_HHH_b1_06816_000000239_0001_1_19_H_._HHH_b1_03656_af2_0001_0000200006_0000001_0_0001_af2pred_0001 (protein)
chain: SSSSSSEELLRLAKKSIEIAEENGDEEKIKIAAHALLNAAKKANDPEALRFAEEVLEEVNSSSSS

Some of the results follow.

In the experiment the target is il10ra, Q13651. The experiment in a line: yeast display titration.
In the case of B1, the “apparent Kd” value is “inactive: no binding seen”.
Next, B2: “inactive: no binding seen”.
Next, B3: “inactive: no binding seen”; B4: “inactive: no binding seen”; B5: “inactive: no binding seen”.
Under B6 stands “inactive: no binding seen”; under B7, “inactive: no binding seen”; under B8, “inactive: no binding seen”.
As to B9, the “apparent Kd” value was “inactive: no binding seen”.
Under B10 stands “inactive: no binding seen”; under B11, “inactive: no binding seen”; under B12, “inactive: no binding seen”.
On to B13, for which the “apparent Kd” value is “inactive: no binding seen”.
Next, B14: “inactive: no binding seen”; B15: “inactive: no binding seen”; B16: “inactive: no binding seen”.
Next, B17: “inactive: no binding seen”; B18: “inactive: no binding seen”; B19: “inactive: no binding seen”.

The values are drawn from publication PMC10163288.
